No constants are given. Whether binding was seen depends on the method and setting. In cells and extracts the contact can be indirect. Here binding means that the protein was enriched with, or labelled near, the bait; the list need not be complete.
B1: Brx1 (protein, UniProt Q08235 1-291)
chain: MSSIYKALAGKSKDNKSEKKQGNVKQFMNKQRTLLISSRGVNYRHRHLIQDLSGLLPHSRKEPKLDTKKDLQQLNEIAELYNCNNVLFFEARKHQDLYLWLSKPPNGPTIKFYIQNLHTMDELNFTGNCLKGSRPVLSFDQRFESSPHYQLIKELLVHNFGVPPNARKSKPFIDHVMSFSIVDDKIWVRTYEISHSTKNKEEYEDGEEDISLVEIGPRFVMTVILILEGSFGGPKIYENKQYVSPNVVRAQIKQQAAEEAKSRAEAAVERKIKRRENVLAADPLSNDALFK
B2: Whi2 (protein, UniProt P12611 1-486)
chain: MDDIITQVSPDNAESAPILQEQQQQQNSQYEGNEEDYGDSLIHLNIQENHYFITRDQLMSLPESLLLCLFPSGVFLDRCGQVITNLTRDDEVYIVNFPPDCFEYIMEIYTKAHDDLYNHPVEKFFDRPSSSFVSNAKGFFGLSSNNSISSNNEQDILHQKPAIIVLREDLDYYCVPQEEFQFDSTNEENNEDLLRHFMAQVKMAAGSYLTSKTSIFQGLYSSNRLKQQQQQQKIEKGSNSSSNTKSTSKKLGPAEQHLMDMLCSSGFTKETCWGNRTQETGKTVISSLSLCRLANETTEGFRQKFNEAKAKWEAEHKPSQDNFITPMQSNISINSLSASKSNSTISTARNLTSGSTAPATARDKRKSRLSKLADNVRSHSSSRHSSQTRSKPPELPKLYDLVPKPNINAKLLLFWRKPARKCWWGEEDIELEVEVFGSWKDESKKIIELILPTNVDPEAELHKIIVPVRLHIRRVWTLELSVIGVQ
B3: Bsp1 (protein, UniProt Q06604 1-576)
chain: MTKYERDPELVNFLSKVEDLNSKRYSNIPSSKPAGEALSPVRSHNSGEYRRADMMTGKNVEGCDNLAYRSAYNYEMTFSPKKTHYSLSELNLERITPRPDLEGSASQKEKKFLISEEDYLLLQKLKASQTYNDSNADKNLPSFEKGPRMPSRGRPRPREKEIITIQYDFELPGRADIPSSSSSSSPPPLPTRRDHIKITDGNEEKPLLPTRPNKAEVTESPSSRSIKPDAVVPERVKPAPPVSRSTKPASFLSSLEDNKLTKAKSYNSEMETPKTTVKSSHIDYLDSIQLKPTTLSPTMKNKPKPTPPSPPAKRIPRSESFIKSMLNSNLTTTSKPSLPEKPQKLRNANLAAHKTKPSIPPKKVELNIVLPELRPVETSPTKQNFENSIDLPKLRSSNRNIKKEEEDSIPEAIKGIQNLKKTKQQKPAIPQKKSFLTNNSKNTTLKNGDDINKLNDEIEALSLRNNLKKRPPTAPQRKISLPEALRKVELMKKSKTEPVLESSNELSINAKLDAIIASRNLRASNTLPELSGVNTNIATSDKYTTSRDETVKETKPLVHPNKNRTRGPRRKLPTRV
B4: Srp68 (protein, UniProt P38687 1-599)
chain: MVAYSPIIATYGNRAEQFLETDSDFAKYHAKLNKKLQHLRSRCHLVTKDTKKYSSKNKYGEINSEDYDNKTKLIGVLILLHAERDLALAETLKLRARQRGKLKKSEEKVLSTRLKKACKTADKLVNVTQNEQQWITRAQYLAFAKLVHSEYLINGKRFKRKDNAKISNNLALVFAALEHLKNLSLLAEEVVDNIVNKYQYSLKQYAGNLITTPEINNFIVERVQSDENKDDELVKLLLDNGFNMKKITTSTEDQKVTTNINWRSFNAKIIDAEVAQFLEQGLSIHPTQITQYTQRLSKLEKALDRHEFFIANHDDQDDIDEMVENSSENNQIILAYIKYNILLTSISRERDLFTHLWNQWLKLNTSLPSKLTKYKEMERIVKNLTKYLSDIMELPGVYSDDELLSQLDLCKLYFQLFLNTGCLSVLYQSKGRYMEALALYVDAYRRLENKLSEIESLDEILLPANLLSLNSVRSLQKRIENGGNSVITLAEYEKRNHGGSLGKYDLTVIEKLDSKKILPTDIQLKNLFPLKPKMLPIPSKPTLFDLAFNYITYDKQEPSASQVKDSVTETESISQTPISNEQTEGEPKKKRGFLGLFGR
B5: Sui3 (protein, UniProt P09064 1-285)
chain: MSSDLAAELGFDPALKKKKKTKKVIPDDFDAAVNGKENGSGDDLFAGLKKKKKKSKSVSADAEAEKEPTDDIAEALGELSLKKKKKKTKDSSVDAFEKELAKAGLDNVDAESKEGTPSANSSIQQEVGLPYSELLSRFFNILRTNNPELAGDRSGPKFRIPPPVCLRDGKKTIFSNIQDIAEKLHRSPEHLIQYLFAELGTSGSVDGQKRLVIKGKFQSKQMENVLRRYILEYVTCKTCKSINTELKREQSNRLFFMVCKSCGSTRSVSSIKTGFQATVGKRRRM
B6: Sur7 (protein, UniProt P54003 1-302)
chain: MVKVWNIVLRLVVLLFLAGNTLLLILMIISGATDHYPVNRFYWVQGNTTGIPNAGDETRWTFWGACLQDKDGSDTCTSNLAPAYPISPVDNFNTHINVPHQFISKRDAFYYLTRFSFCFFWIALAFVGVSFILYVLTWCSKMLSEMVLILMSFGFVFNTAAVVLQTAASAMAKNAFHDDHRSAQLGASMMGMAWASVFLCIVEFILLVFWSVRARLASTYSIDNSRYRTSSRWNPFHREKEQATDPILTATGPEDMQQSASIVGPSSNANPVTATAATENQPKGINFFTIRKSHERPDDVSV
B7: Bud7 (protein, UniProt Q08754 1-746)
chain: MITQNSIPEVKEDFIGYALHERRIRLPQFQDLGPADLVTLTKYLPTSSNTNAINSTSRNGAAIIQSPAAVVADDSAASMATNGDASDTAVTTNYTNASIYSSSRNANDGAPMVAELHPLDKLKDEVGTFFYSMGVDTSGPTSIAIFLKEISEVISEKPQVWFGRKKTFNVARISFSTWNAFRRCDINVVVHIPGSIQNFIVDCNGESQNIEMCADYDLIWAETFVSGVVRSIMLMKENAEEGELQNLVETLILNPFTAGQIDDVPEMFIDLFPIVYHKGPLLGAPYYITNVTNTNNYLVETLVEIVKLTRNVSRAEIMLKNLATDNPEAIIILIKIFLVCDQELDAIKLTYDMLSQDKIINNTNNRMDYKSELLCLQAQFLIDKRQDYSLAQNIAQEAVNCSPSEFRPWYLLSKVYVKLNDIENALLILNSCPMSPLKEKYVLKRVAPLPSNNSLHLPLPIDVVLDEVTSLNPQDVQNEHRSADPMLVNLAASNLKSTFQLAYRLLTEIVQITGWENLLKYRSNIFVMEEEYQKSSSSLPKDVNKQEEQPLRAKRLCERWLDNLFMLLYEDLKMYTLWQTEQLYMDAQNNNHNKLTFEWELFGLCARRLGHFPEAAKAFQNGLSQRFSSRCARKLLEYCINERQRVKNFINSPNSHDMVPEIVSSRIRELDNSIIDLCVKICCWNHRWYTEFSISLLDCLSVVIQDMSLTKVSNEISSRYPETVLNLVQENLLNFFTTCTIGCYDA
B8: Srp54 (protein, UniProt P20424 1-541)
chain: MVLADLGKRINSAVNNAISNTQDDFTTSVDVMLKGIVTALLESDVNIALVSKLRNNIRSQLLSENRSEKSTTNAQTKKLIQKTVFDELCKLVTCEGSEEKAFVPKKRKTNIIMFVGLQGSGKTTSCTKLAVYYSKRGFKVGLVCADTFRAGAFDQLKQNAIRARIPFYGSYTETDPAKVAEEGINKFKKEKFDIIIVDTSGRHHQEEELFQEMIEISNVIKPNQTIMVLDASIGQAAEQQSKAFKESSDFGAIILTKMDGHARGGGAISAVAATNTPIIFIGTGEHIHDLEKFSPKSFISKLLGIGDIESLFEQLQTVSNKEDAKATMENIQKGKFTLLDFKKQMQTIMKMGPLSNIAQMIPGMSNMMNQVGEEETSQKMKKMVYVLDSMTKEELESDGRMFIEEPTRMVRVAKGSGTSVFEVEMILMQQQMMARMAQTATQQQPGAPGANARMPGMPNMPGMPNMPGMPNMPGMPKVTPQMMQQAQQKLKQNPGLMQNMMNMFGGGMGGGMGGGMPDMNEMMKMMQDPQMQQMAKQFGMG

Chains of the proteins cited; added tags and fusions are not shown.
UniProt P53297: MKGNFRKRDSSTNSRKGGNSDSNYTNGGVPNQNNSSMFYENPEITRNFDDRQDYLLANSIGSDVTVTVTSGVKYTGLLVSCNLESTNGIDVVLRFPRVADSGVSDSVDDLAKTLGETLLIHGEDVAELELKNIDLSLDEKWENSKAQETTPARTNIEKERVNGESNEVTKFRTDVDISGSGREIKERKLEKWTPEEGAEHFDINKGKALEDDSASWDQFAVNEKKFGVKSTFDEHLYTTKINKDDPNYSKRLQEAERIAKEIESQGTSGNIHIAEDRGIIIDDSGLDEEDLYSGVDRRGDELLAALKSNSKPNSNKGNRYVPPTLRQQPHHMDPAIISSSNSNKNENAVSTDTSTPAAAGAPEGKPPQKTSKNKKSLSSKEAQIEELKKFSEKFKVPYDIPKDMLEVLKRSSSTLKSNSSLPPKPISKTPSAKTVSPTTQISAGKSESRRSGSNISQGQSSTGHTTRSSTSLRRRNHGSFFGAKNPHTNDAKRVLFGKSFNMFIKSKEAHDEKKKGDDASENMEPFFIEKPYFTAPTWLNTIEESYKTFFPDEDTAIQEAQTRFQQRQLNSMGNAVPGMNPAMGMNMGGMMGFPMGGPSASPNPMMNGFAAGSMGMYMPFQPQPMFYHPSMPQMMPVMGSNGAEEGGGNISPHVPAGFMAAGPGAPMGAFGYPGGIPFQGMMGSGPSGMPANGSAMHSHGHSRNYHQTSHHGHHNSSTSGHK

Each binder was assayed against Pbp1-myc (S. cerevisiae) (UniProt P53297) (assay: affinity purification with mass spectrometry; cells unstressed or glucose-depleted (10 min for Dcp1-myc, 60 min for Pbp1-myc), cross-linked with 0.8% formaldehyde; 20,000 g pellet of the lysate in Blob100 buffer (20 mM Tris-HCl pH 8, 100 mM NaCl, 1 mM MgCl2, 0.5% NP40) on anti-c-Myc magnetic beads, eluted with Myc peptide; label-free LC-MS/MS; hits are the proteins that cluster (Mfuzz) with the tagged bait across IP, pellet, supernatant, total and unbound fractions).

binding, binds:
B1
B2
B3
B4
B5
B6
B7
B8

— PMC8782181
